PubChem BioAssay AID1159578 – Peter MacCallum Cancer Centre – 2015
The deposit covers about 18,000 reagents; this is a part drawn at random. About 1,030 of all reagents (5.7%) count as active. 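Inactive calls also include pools with fewer than 3300 nuclei, whose migration was not assessed.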 Raw values are not corrected between plates. The numbers tell different reagents against one gene apart. Further read-outs or replicates are left out here.

Test: 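Knock-downs that alter how fast lymphatic endothelial cells migrate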 (primary screen)
Cells: human lymphatic endothelial cells
Reagents: siRNA pool against human genes, 40 nM
Timing: 48 h after transfection
Measured: 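High-content imaging of dye-stained cells in a scratch assay measures filled wound area and nuclei per well; duplicate means given as ratio to mock and robust z-score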
Reading the numbers: migration robust z-score: higher = faster migration into the scratch; nuclei per well: higher = more cells in the well
Call rule: 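Pools averaging fewer than 3300 nuclei are never called; remaining pools count as changed when migration robust z lies outside -2 to 2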
Calls: active = migration changed; inactive = no migration change, or too few cells

target gene	reagent no.	migration robust z-score	migration class with cell-count check	nuclei per well, duplicate mean	Outcome
PDCD1	1	0.97	migration z between -2 and 2; enough cells	5462	inactive
VSTM4	1	1.25	migration z between -2 and 2; enough cells	5418	inactive
ITGA11	1	0.55	migration z between -2 and 2; enough cells	5982	inactive
HIF1A	1	0.88	migration z between -2 and 2; enough cells	6198	inactive
SANBR	1	-0.14	migration z between -2 and 2; enough cells	5138	inactive
GMPS	1	0.75	migration z between -2 and 2; enough cells	5359	inactive
PLEKHG7	1	2.8	migration z above 2; enough cells	7274	active
PLEKHG7	2	-0.46	migration z between -2 and 2; enough cells	5750	inactive
HARS2	1	0.44	migration z between -2 and 2; enough cells	5470	inactive
TM2D2	1	-1.4	migration z between -2 and 2; enough cells	5215	inactive
LOC652759 (retired record)	1	-0.57	migration z between -2 and 2; enough cells	5417	inactive
ZNF713	1	0.4	migration z between -2 and 2; enough cells	5524	inactive
LTBR	1	-0.96	migration z between -2 and 2; enough cells	5643	inactive
EDA	1	0.65	migration z between -2 and 2; enough cells	6637	inactive
BNIP3L	1	0.32	migration z between -2 and 2; enough cells	5128	inactive
FLOT2	1	2.19	migration z above 2; enough cells	5374	active
MAU2	1	0.26	migration z between -2 and 2; enough cells	5594	inactive
LCN10	1	0.78	migration z between -2 and 2; enough cells	4840	inactive
PPBP	1	0.33	migration z between -2 and 2; enough cells	6143	inactive
OR9G1	1	0.14	migration z between -2 and 2; enough cells	6402	inactive
DDR2	1	0.24	migration z between -2 and 2; enough cells	6405	inactive
LRRC47	1	0.32	migration z between -2 and 2; enough cells	4602	inactive
FLRT1	1	-0.32	migration z between -2 and 2; enough cells	5036	inactive
SYTL1	1	-0.18	migration z between -2 and 2; enough cells	5826	inactive
RAB27B	1	-0.21	migration z between -2 and 2; enough cells	5165	inactive
RNF148	1	0.7	migration z between -2 and 2; enough cells	6284	inactive
PGK2	1	-1.02	migration z between -2 and 2; enough cells	4450	inactive
SLC26A3	1	-0.1	migration z between -2 and 2; enough cells	6278	inactive
PINX1	1	0.36	migration z between -2 and 2; enough cells	5708	inactive
DNASE1L3	1	-0.65	migration z between -2 and 2; enough cells	5169	inactive
PDZK1	1	0.31	migration z between -2 and 2; enough cells	6772	inactive
GPSM2	1	0.53	migration z between -2 and 2; enough cells	5840	inactive
ARL6IP6	1	2.99	migration z above 2; enough cells	6074	active

Hits (from the list above):
target gene	reagent no.	migration robust z-score	migration class with cell-count check	nuclei per well, duplicate mean	Outcome
PLEKHG7	1	2.8	migration z above 2; enough cells	7274	active
FLOT2	1	2.19	migration z above 2; enough cells	5374	active
ARL6IP6	1	2.99	migration z above 2; enough cells	6074	active

More results follow:
target gene	reagent no.	migration robust z-score	migration class with cell-count check	nuclei per well, duplicate mean	Outcome
LORICRIN	1	-0.66	migration z between -2 and 2; enough cells	6052	inactive
HGD	1	0.16	migration z between -2 and 2; enough cells	4802	inactive
ANKRD13A	1	1	migration z between -2 and 2; enough cells	5274	inactive
LIPG	1	-0.9	migration z between -2 and 2; enough cells	7248	inactive
UBE2Z	1	0.26	migration z between -2 and 2; enough cells	4916	inactive
PAXBP1	1	-2.34	migration z below -2; enough cells	5606	active
SRI	1	-0.41	migration z between -2 and 2; enough cells	5624	inactive
EVC	1	0.92	migration z between -2 and 2; enough cells	6201	inactive
CLASP2	1	0.13	migration z between -2 and 2; enough cells	5656	inactive
CTNNA3	1	-0.9	migration z between -2 and 2; enough cells	6066	inactive
UBQLN2	1	1.66	migration z between -2 and 2; enough cells	6294	inactive
SECISBP2L	1	0.37	migration z between -2 and 2; enough cells	4594	inactive
LMNTD2	1	0.38	migration z between -2 and 2; enough cells	6418	inactive
RSPRY1	1	0.9	migration z between -2 and 2; enough cells	5132	inactive
C22orf31	1	0.76	migration z between -2 and 2; enough cells	6406	inactive
OR6C6	1	0.22	migration z between -2 and 2; enough cells	4584	inactive
TGIF1	1	0.24	migration z between -2 and 2; enough cells	6690	inactive
NIPSNAP2	1	1.69	migration z between -2 and 2; enough cells	5752	inactive
IQGAP2	1	-1.32	migration z between -2 and 2; enough cells	6167	inactive
NLGN4Y	1	-0.96	migration z between -2 and 2; enough cells	5743	inactive
OR51G1	1	2.17	migration z above 2; enough cells	5527	active
ACADL	1	-0.78	migration z between -2 and 2; enough cells	6080	inactive
PRRC2A	1	1	migration z between -2 and 2; enough cells	7150	inactive
CRELD2	1	0.66	migration z between -2 and 2; enough cells	5764	inactive
